Source: patent US6436987B1, “Crystalline forms of (3S-trans)-2-[3,4-dihydro-4-hydroxy-3-(phenylmethyl)-2H-1-benzopyran-7-yl]-4-(trifluoromethyl)-benzoic acid” (Pfizer Inc., priority 2000, dated 2002)
Some results were stated once for a whole list of compounds, not compound by compound.

Experiment: conversion (bridging) to polymorph A in solvent
Type: physicochemical
Details: stirred in a dry solvent in which the form has some solubility
Experimental: Polymorph B crystals may also be converted back to polymorph A crystals by placement in a solvent in which the B form is very slightly soluble, such as n-hexanes. Over a period of time (for example, no more than 18 hours) crystals of polymorph A will develop. Prolonged granulation (for example 18 hours) even when conducted at 5° C. will also effect conversion to polymorph A.
Examples of suitable solvent include ethyl acetate: hexanes 1:5.

| Compound | time needed for conversion to polymorph A |
| --- | --- |
| O=C(O)c1ccc(C(F)(F)F)cc1-c1ccc2c(c1)OC[C@H](Cc1ccccc1)[C@H]2O [monohydrate, (3S-trans)-2-[3,4-dihydro-4-hydroxy-3-(phenylmethyl)-2H-1-benzopyran-7-yl]-4-(trifluoromethyl)-benzoic acid] | no more than 96 hours |
| O=C(O)c1ccc(C(F)(F)F)cc1-c1ccc2c(c1)OC[C@H](Cc1ccccc1)[C@H]2O [polymorph B, (3S-trans)-2-[3,4-dihydro-4-hydroxy-3-(phenylmethyl)-2H-1-benzopyran-7-yl]-4-(trifluoromethyl)-benzoic acid] | no more than 96 hours |
